We go through 37 compounds from the supplement of paper PMC3741180, “A Novel High Throughput Biochemical Assay to Evaluate the HuR Protein-RNA Complex Formation” (PLoS ONE, 2013).

Protein sequences, listed by entry. Tags and fused reporters are not part of them.
UniProt Q15717, whole entry: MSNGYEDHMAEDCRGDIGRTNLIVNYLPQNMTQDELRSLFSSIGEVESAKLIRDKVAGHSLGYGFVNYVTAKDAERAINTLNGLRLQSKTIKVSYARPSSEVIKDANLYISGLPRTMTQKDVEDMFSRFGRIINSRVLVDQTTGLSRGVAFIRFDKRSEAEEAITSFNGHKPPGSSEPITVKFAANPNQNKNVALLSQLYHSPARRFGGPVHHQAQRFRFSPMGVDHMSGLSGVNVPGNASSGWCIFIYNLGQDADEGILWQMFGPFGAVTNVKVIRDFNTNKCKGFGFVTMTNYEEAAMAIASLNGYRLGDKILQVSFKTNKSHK

The other results are listed elsewhere or left out. Most values lie within the scatter of the assay; repeated measurements hardly agree.

The assay addresses HuR (ELAVL1) - TNFalpha ARE RNA complex (UniProt Q15717). Put plainly: AlphaScreen HuR-RNA complex signal Z-score relative to positive controls (secondary screen) (Z-score (SD units of positive control)); higher = more complex signal. Conditions: screen stage: secondary re-screen. (In general: Alpha assays give light when donor and acceptor beads are brought close together.)

In the case of `CC(C)=CCc1c2c(c3occ(-c4ccc(O)cc4)c(=O)c3c1O)C=CC(C)(C)O2`, the “AlphaScreen HuR-RNA complex signal Z-score” value was -0.0554.

`CC(=O)OCC(=O)[C@@]1(O)CC[C@H]2[C@@H]3CCC4=CC(=O)CC[C@]4(C)[C@H]3C(=O)C[C@@]21C`: the “AlphaScreen HuR-RNA complex signal Z-score” value came out at 0.994.

For `C[C@@H]1CC[C@@]23CCC4(C)[C@@](C=CC5[C@@]6(C)CC[C@H](O)C(C)(C)C6CC[C@]54C)(OC2=O)C3[C@H]1C` (some centres not stated), the “AlphaScreen HuR-RNA complex signal Z-score” value stood at 1.27.

Turning to `CC(=O)OCC1=C(C(=O)O)N2C(=O)[C@@H](NC(=O)Cc3cccs3)[C@H]2SC1`, the “AlphaScreen HuR-RNA complex signal Z-score” value turned out to be 0.844.

With `CC1CC(OC(=O)c2ccccc2O)CC(C)(C)C1` (configuration not stated), the “AlphaScreen HuR-RNA complex signal Z-score” value worked out at 2.27.

On to `CC(=O)O[C@H]1C[C@@H](OC(C)=O)C(C)(C)C2CC(=O)[C@]3(C)C(CC[C@@]4(C)[C@H](c5ccoc5)OC(=O)[C@H]5O[C@]543)[C@]21C` (some centres not stated), for which the “AlphaScreen HuR-RNA complex signal Z-score” value was 0.662.

As to `C[C@H]1c2cccc(O)c2C(=O)C2=C(O)[C@]3(O)C(=O)C(C(N)=O)=C(O)[C@@H](N(C)C)[C@@H]3[C@@H](O)[C@@H]21`, the “AlphaScreen HuR-RNA complex signal Z-score” value stood at 1.21.

For `OC[C@@H](O)[C@@H](O)[C@H](O)[C@@H](O)CO`, the “AlphaScreen HuR-RNA complex signal Z-score” value amounted to 1.05.

For `CCCc1nc2c(C)cc(-c3nc4ccccc4n3C)cc2n1Cc1ccc(-c2ccccc2C(=O)O)cc1`, the “AlphaScreen HuR-RNA complex signal Z-score” value came out at 1.8.

For the compound `Oc1ccc(O)cc1`, the “AlphaScreen HuR-RNA complex signal Z-score” value is -6.13.

With `NS(=O)(=O)c1cc2c(cc1C(F)(F)F)NCNS2(=O)=O`, the “AlphaScreen HuR-RNA complex signal Z-score” value was found to be 0.626.

As to `O=C(c1ccc(OCCN2CCCCC2)cc1)c1c(-c2ccc(O)cc2)sc2cc(O)ccc12`, the “AlphaScreen HuR-RNA complex signal Z-score” value is -2.14.

With `C=CC1=C(C(=O)O)N2C(=O)[C@@H](NC(=O)/C(=N\O)c3csc(N)n3)[C@H]2SC1`, the “AlphaScreen HuR-RNA complex signal Z-score” value is 1.31.

Turning to `Clc1cccc(Cl)c1NC1=NCCN1`, the “AlphaScreen HuR-RNA complex signal Z-score” value was 0.932.

Consider `CN1CCN(CC/C=C2/c3ccccc3Sc3ccc(S(=O)(=O)N(C)C)cc32)CC1`, for which the “AlphaScreen HuR-RNA complex signal Z-score” value was found to be 1.69.

`CC[C@H]1OC(=O)C[C@@H](O)[C@H](C)[C@@H](O[C@@H]2O[C@H](C)[C@@H](O)[C@H](N(C)C)[C@H]2O)[C@@H](CCN2C[C@H](C)C[C@H](C)C2)C[C@@H](C)C(=O)/C=C/C(C)=C/[C@@H]1CO[C@@H]1O[C@H](C)[C@@H](O)[C@@H](OC)[C@H]1OC`: the “AlphaScreen HuR-RNA complex signal Z-score” value was -4.5.

Regarding `CC/C(=C(/CC)c1ccc(O)cc1)c1ccc(O)cc1`, the “AlphaScreen HuR-RNA complex signal Z-score” value was -0.135.

Consider `CC(C)[N+]1(C)[C@@H]2CC[C@H]1C[C@@H](OC(=O)C(CO)c1ccccc1)C2` (some centres not stated), for which the “AlphaScreen HuR-RNA complex signal Z-score” value is 0.674.

With `CC(=O)N[C@H]1[C@H]([C@H](O)[C@H](O)CO)OC(O)(C(=O)O)C[C@@H]1O` (mixture of isomers), the “AlphaScreen HuR-RNA complex signal Z-score” value worked out at 1.08.

In the case of `Cc1cc(C)nc(NS(=O)(=O)c2ccc(N)cc2)n1`, the “AlphaScreen HuR-RNA complex signal Z-score” value stood at 1.55.

As for `Nc1cc(C(Cl)=C(Cl)Cl)c(S(N)(=O)=O)cc1S(N)(=O)=O`, the “AlphaScreen HuR-RNA complex signal Z-score” value worked out at 1.33.

For `CC(C)c1nc(N(C)S(C)(=O)=O)nc(-c2ccc(F)cc2)c1/C=C/[C@@H](O)C[C@@H](O)CC(=O)O`, the “AlphaScreen HuR-RNA complex signal Z-score” value was 0.818.

Regarding `NC(C(=O)O)C(O)C(=O)O` (stereo not drawn) [d,l-threo-3-HYDROXYASPARTIC ACID], the “AlphaScreen HuR-RNA complex signal Z-score” value came to 0.534.

As for `COc1ccccc1OCCNCC(O)COc1cccc2[nH]c3ccccc3c12` (configuration not stated), the “AlphaScreen HuR-RNA complex signal Z-score” value amounted to 1.8.

Take `Nc1nc2[nH]cnc2c(=S)[nH]1`: the “AlphaScreen HuR-RNA complex signal Z-score” value was 2.26.

Take `CC[C@]1(O)C[C@@H]2CN(CCc3c([nH]c4ccccc34)[C@@](C(=O)OC)(c3cc4c(cc3OC)N(C)[C@H]3[C@@](O)(C(=O)OC)[C@H](OC(C)=O)[C@]5(CC)C=CCN6CC[C@]43[C@@H]65)C2)C1`: the “AlphaScreen HuR-RNA complex signal Z-score” value was 1.55.

In the case of `COc1ccc(C(=O)c2ccccc2O)c(O)c1`, the “AlphaScreen HuR-RNA complex signal Z-score” value is 1.3.

For the compound `CCN(Cc1ccncc1)C(=O)C(CO)c1ccccc1` (configuration not stated), the “AlphaScreen HuR-RNA complex signal Z-score” value worked out at 1.74.

Turning to `N[C@@H]1CONC1=O`, the “AlphaScreen HuR-RNA complex signal Z-score” value is 0.704.

As for `CN(C)CCCN1c2ccccc2Sc2ccc(Cl)cc21`, the “AlphaScreen HuR-RNA complex signal Z-score” value stood at 0.256.

In the case of `CN(C)[C@@H]1C(O)=C(C(N)=O)C(=O)[C@@]2(O)C(O)=C3C(=O)c4c(O)ccc(Cl)c4[C@@](C)(O)[C@H]3C[C@@H]12`, the “AlphaScreen HuR-RNA complex signal Z-score” value came to 0.918.

For the compound `CN(C)CC[C@@H](c1ccc(Cl)cc1)c1ccccn1`, the “AlphaScreen HuR-RNA complex signal Z-score” value is 1.22.

With `COc1cc(C(=O)N2CCOCC2)cc(OC)c1OC`, the “AlphaScreen HuR-RNA complex signal Z-score” value was 2.06.

In the case of `C[C@]12CC[C@@H]3c4ccc(O)cc4CC[C@H]3[C@@H]1CCC2=O`, the “AlphaScreen HuR-RNA complex signal Z-score” value was 0.681.

For `CC(=O)c1ccc2c(c1)N(CCCN(C)C)c1ccccc1S2`, the “AlphaScreen HuR-RNA complex signal Z-score” value was -0.289.

Consider `Nc1ccn([C@@H]2O[C@H](CO)[C@@H](O)[C@@H]2O)c(=O)n1`, for which the “AlphaScreen HuR-RNA complex signal Z-score” value amounted to 0.208.

As to `C[C@H]1O[C@H](O[C@H]2[C@H](O)[C@@H](O)[C@@H](O[C@H]3[C@H](O)[C@@H](O)C(O)O[C@@H]3CO)O[C@@H]2CO)[C@H](O)[C@@H](O)[C@@H]1N[C@H]1C=C(CO)[C@@H](O)[C@H](O)[C@H]1O` (some centres not stated), the “AlphaScreen HuR-RNA complex signal Z-score” value amounted to 1.51.
